Patent publication US8623326B2 (University of Western Ontario, priority 2008, dated 2014)
Strings that start with PEPTIDE1 are HELM notation: dots part the residues, brackets hold end groups and non-standard residues.

Experiment: general procedure: Fmoc solid-phase peptide synthesis; Fmoc protected rink amide MBHA resin (loading 0.27 or 0.47 meq/g); HBTU/DIPEA
Settings: whole synthesis

PEPTIDE1{G.S.[Dpr].F.L.[am]}|PEPTIDE2{[FHex6]}$PEPTIDE1,PEPTIDE2,3:R3-1:R2$$$V2.0
isolated mass: 3.4 mg | isolated yield (overall, scale of the general procedure 1 mmol): 9% | final purity (method not given) (scale of the general procedure 1 mmol): 97%
